Data as given in US20200010560A1.
Results are given in words; binding and its absence hold for the method and conditions named. Some results given as binding are weak or reduced against the parent protein; the word gives no strength. For part of these data: Where a sequence is shown, tags or fusion partners need not be part of it.

Key:
[1] = biological target: T1, 5T4 on human tumour cells (human) (UniProt Q13641); test: flow cytometry on disaggregated ovarian tumour cells
T1 sequence (looked up): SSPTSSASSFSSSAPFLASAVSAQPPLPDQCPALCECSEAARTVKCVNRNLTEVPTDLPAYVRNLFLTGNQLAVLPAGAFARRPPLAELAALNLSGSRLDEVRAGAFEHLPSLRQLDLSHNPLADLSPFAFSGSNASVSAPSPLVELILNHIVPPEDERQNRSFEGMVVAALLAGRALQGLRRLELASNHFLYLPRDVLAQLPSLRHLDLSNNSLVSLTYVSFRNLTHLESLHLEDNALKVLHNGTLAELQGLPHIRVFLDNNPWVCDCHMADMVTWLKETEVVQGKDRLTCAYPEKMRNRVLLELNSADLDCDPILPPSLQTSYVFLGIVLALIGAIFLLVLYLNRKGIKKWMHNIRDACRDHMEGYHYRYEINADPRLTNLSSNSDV

[2] = biological target: T1, 5T4 on human tumour cells (human); test: flow cytometry with PE-conjugated H8 on myeloma cell lines
[3] = biological target: T2, recombinant protein comprising the extracellular domain of 5T4 with a C-terminal enterokinase cleavage sequence, myc epitope and a six histidine tag (human) (UniProt Q13641); test: western blot
T2 sequence (looked up): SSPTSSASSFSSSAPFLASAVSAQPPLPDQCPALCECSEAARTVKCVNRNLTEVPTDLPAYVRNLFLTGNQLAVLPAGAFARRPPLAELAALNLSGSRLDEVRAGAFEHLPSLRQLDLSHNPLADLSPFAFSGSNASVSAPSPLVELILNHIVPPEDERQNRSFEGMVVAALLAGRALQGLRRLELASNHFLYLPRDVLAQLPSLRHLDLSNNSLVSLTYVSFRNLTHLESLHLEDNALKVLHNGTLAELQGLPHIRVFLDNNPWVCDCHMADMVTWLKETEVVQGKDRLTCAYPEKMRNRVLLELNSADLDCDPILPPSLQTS

[4] = biological target: T2, recombinant protein comprising the extracellular domain of 5T4 with a C-terminal enterokinase cleavage sequence, myc epitope and a six histidine tag (human); test: ELISA on recombinant 5T4 extracellular domain
[5] = biological target: T2, recombinant protein comprising the extracellular domain of 5T4 with a C-terminal enterokinase cleavage sequence, myc epitope and a six histidine tag (human); test: western blot, reduced and unreduced 5T4 protein

Measured: binding

B1: anti-5T4 H8 murine monoclonal antibody (antibody)
scFv: MEVQLQQSGPDLVKPGASVKISCKASGYSFTGYYMHWVKQSHGKSLEWIGRINPNNGVTLYNQKFKDKAILTVDKSSTTAYMELRSLTSEDSAVYYCARSTMITNYVMDYWGQVTSVTVSSGGGGSGGGGTGGGGSSIVMTQTPTFLLVSAGDRVTITCKASQSVSNDVAWYQQKPGQSPTLLISYTSSRYAGVPDRFIGSGYGTDFTFTISTLQAEDLAVYFCQQDYNSPPTFGGGTKLEIKR
binds: [1] | [2]

B2: 2E4 antibody (anti-5T4 mouse monoclonal antibody) (antibody)
scFv: MEVQLQQSGPELVKPGASVKISCKASGYSFTGYYMHWVKQSHVKSLEWIGRINPYNGATTYNQDFKDKASLTVDKSSSTASMELHSLTSEDSAVYYCALSTMITTAWFAYWGQGTLVTVSPGGGGSGGGGTGGGGSNFVMTQTPKFLLASAGDRVTISCKASQSVSNDVGWYQQKPGQSPKLLIYFASNRYTGVPDRFIGSGYGTDFTFTISTVQAEDLAVYFCQQDYSSPFTFGSGTKLEIK
binds: [3] | [4] | [5] | [1]
